From paper PMC5564613 come the findings set out here.

Chains of the proteins cited; added tags and fusions are not shown. Lines headed by an entry give the natural chain unless they say otherwise; changes in a name come on top.
UniProt O43791: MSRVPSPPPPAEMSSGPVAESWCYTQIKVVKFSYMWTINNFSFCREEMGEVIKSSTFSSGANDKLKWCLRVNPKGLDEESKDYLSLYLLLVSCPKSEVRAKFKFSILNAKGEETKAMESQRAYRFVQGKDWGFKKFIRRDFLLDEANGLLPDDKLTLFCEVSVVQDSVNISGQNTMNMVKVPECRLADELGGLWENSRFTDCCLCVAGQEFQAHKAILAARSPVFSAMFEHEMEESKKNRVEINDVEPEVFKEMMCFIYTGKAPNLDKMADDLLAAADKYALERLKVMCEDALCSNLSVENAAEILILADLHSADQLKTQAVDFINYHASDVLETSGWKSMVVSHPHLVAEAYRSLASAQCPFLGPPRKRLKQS
UniProt Q9UBN7: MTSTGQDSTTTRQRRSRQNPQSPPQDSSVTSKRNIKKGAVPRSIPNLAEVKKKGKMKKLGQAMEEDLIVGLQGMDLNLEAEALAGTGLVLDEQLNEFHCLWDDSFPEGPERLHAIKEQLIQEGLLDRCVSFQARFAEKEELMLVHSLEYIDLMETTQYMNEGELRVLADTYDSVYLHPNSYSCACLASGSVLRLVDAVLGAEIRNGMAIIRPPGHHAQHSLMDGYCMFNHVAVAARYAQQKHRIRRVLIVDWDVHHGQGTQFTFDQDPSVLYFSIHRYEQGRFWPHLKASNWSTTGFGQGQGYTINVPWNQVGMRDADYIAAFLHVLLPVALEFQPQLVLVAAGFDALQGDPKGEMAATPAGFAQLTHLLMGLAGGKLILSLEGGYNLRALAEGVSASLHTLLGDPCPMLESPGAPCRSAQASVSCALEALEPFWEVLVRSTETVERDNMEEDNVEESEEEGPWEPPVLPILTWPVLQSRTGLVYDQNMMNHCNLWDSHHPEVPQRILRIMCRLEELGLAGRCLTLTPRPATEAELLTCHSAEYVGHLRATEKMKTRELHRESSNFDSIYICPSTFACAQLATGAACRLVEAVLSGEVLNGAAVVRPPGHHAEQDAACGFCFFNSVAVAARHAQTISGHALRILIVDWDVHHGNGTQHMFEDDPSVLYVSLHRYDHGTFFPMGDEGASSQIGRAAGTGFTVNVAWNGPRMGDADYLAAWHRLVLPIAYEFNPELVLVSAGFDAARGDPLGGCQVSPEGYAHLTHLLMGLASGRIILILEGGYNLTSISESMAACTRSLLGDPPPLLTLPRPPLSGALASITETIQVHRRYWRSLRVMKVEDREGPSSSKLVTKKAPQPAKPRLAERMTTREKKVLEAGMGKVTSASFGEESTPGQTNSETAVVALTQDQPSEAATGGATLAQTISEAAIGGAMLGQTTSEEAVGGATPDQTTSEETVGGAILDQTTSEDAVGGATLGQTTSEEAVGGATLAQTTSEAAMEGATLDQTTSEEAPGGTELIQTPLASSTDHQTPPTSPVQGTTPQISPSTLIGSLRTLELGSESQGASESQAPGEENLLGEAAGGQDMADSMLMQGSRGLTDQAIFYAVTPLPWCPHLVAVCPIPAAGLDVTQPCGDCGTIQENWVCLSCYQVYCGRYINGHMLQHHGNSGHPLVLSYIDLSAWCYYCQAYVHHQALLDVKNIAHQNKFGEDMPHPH

The target of the assay is GST-SPOP (pGEX-4T-1-SPOP) (human) (UniProt O43791). Briefly: pull-down; GST pull-down from lysates of 293T cells transfected with HDAC6 constructs, treated with 10 μM MG132 for 12 hours; by the methods 1 mg lysate with 1 μg bacterial purified GST fused protein for 4 hours in the cold room, washed with NETN buffer; immunoblot; only the target purified.

These are yes or no findings as the source states them, for the method shown. In cells and extracts the contact can be indirect.

As for “HDAC6 with deletion of degron 2 (ΔD2) (from UniProt Q9UBN7)”, the binding result is “no binding”.
